Results on 57 compounds are retold here after PMC12431657, “Discovery and mechanistic insights of dibenzoylmethane as a broad spectrum inhibitor of coronavirus” (PLOS Pathogens, 2025).

The test system of this test is HCoV-OC43. Also noted: species or system RD; HTS, protection from HCoV-OC43 induced cell death, luminescent cell viability (CellCounting-Lite 2.0), inhibition rate. Particulars: 24 h post infection, 1 h compound pre-incubation, 10 µM, inhibitor.

Where a name gives a salt, the structure may show the parent alone. Read-outs that look alike come from different tables or passages of the source. The campaign covered roughly 3,300 compounds. About 60 (2%) showed an effect of 50% or more. This is one part of the list. Peptide text beside a SMILES is read from it.

As for `COc1c(/C=C/C(=O)c2ccc(O)c(CC=C(C)C)c2)ccc(O)c1O` [Licochalcone D], the “OC43 Inhibition rate” value came out at 9.9%.

As for `CC1=C\[C@@H](O)CC(=O)Cc2nc(co2)C(=O)N2CCC=C2C(=O)O[C@H](C(C)C)[C@H](C)/C=C/C(=O)NC\C=C\1` [Virginiamycin M1], the “OC43 Inhibition rate” value was 6.6%.

As for `CCCCCCCCCCCCCCCCCC(=O)OC` [Methyl stearate], the “OC43 Inhibition rate” value is -1.4%.

For the compound `CO[C@@H]1[C@H](OC(=O)/C=C/C=C/C=C/C=C/C(=O)O)CC[C@]2(CO2)[C@H]1[C@@]1(C)O[C@@H]1CC=C(C)C` [Fumagillin], the “OC43 Inhibition rate” value is reported as 2.4%. Consider `COc1cc(CCC(=O)O)ccc1O` [Dihydroferulic acid], for which the “OC43 Inhibition rate” value turned out to be 0.2%. The same measure, in the same setting: under `CC(=O)c1ccc[nH]1` [2-Acetylpyrrole] stands 0%. Turning to `Cc1cc(=O)c2c(O)c3c(O)cc(O)c4c5c(O)cc(O)c6c(O)c7c(=O)cc(C)cc7c(c65)c(c2c1)c34` [Protohypericin], the “OC43 Inhibition rate” value was -0.2%.

`O=C(O)CNC(=O)[C@@H]1CCCN1` [L-Prolylglycine] (H-Pro-Gly-OH): the “OC43 Inhibition rate” value was determined as 1%. In the case of `N=C(N)NCCC[C@H](N)C(=O)O` [L-Arginine (hydrochloride)], the “OC43 Inhibition rate” value (OC43 Inhibition rate, 24 h) is on record as -1.4%. Turning to `CC(=O)NCCCCCC(=O)O` [6-Acetamidohexanoic acid], the “OC43 Inhibition rate” value was 0.9%. Turning to `CC(C)(O)[C@@H]1CC[C@](C)([C@H]2[C@@H](O)C[C@@]3(C)[C@@H]4C[C@H](O[C@@H]5O[C@H](CO)[C@@H](O)[C@H](O)[C@H]5O)[C@H]5C(C)(C)[C@@H](O[C@@H]6OC[C@@H](O)[C@H](O)[C@H]6O)CC[C@@]56C[C@@]46CC[C@]23C)O1` [Astragaloside IV], the “OC43 Inhibition rate” value is -0.4%. For `C[C@@H]1C[C@H]2O[C@@]3(O[C@@H]2C(C)(C)O)[C@H](O)[C@@]2(C)[C@@H]4CC[C@H]5C(C)(C)[C@@H](O[C@@H]6OC[C@@H](O)[C@H](O)[C@H]6O)CC[C@@]56C[C@@]46CC[C@]2(C)[C@@H]13` [Cimigenoside], the “OC43 Inhibition rate” value stood at 1.4%. On to `COc1ccc2c3ccnc4ccc(=O)n(c2c1)c43` [9-Methoxycanthin-6-one], for which the “OC43 Inhibition rate” value is listed as 12%. For the compound `COc1cc(/C=C/C(=O)NCC(O)c2ccc(O)cc2)ccc1O` (stereo not drawn) [N-Feruloyloctopamine], the “OC43 Inhibition rate” value stood at 0.5%.

For `COc1nccc(N)n1` [2-O-Methylcytosine], the “OC43 Inhibition rate” value was 0.2%. On to `C[C@@]12C=Cc3occc3[C@H]1CC[C@@]13C[C@@H](CC[C@H]12)[C@@](O)(CO)C3` [Kahweol], for which the “OC43 Inhibition rate” value is -1.2%. Turning to `CC1=NCCc2c1[nH]c1cc(O)ccc21` [Harmalol (hydrochloride)], the “OC43 Inhibition rate” value was 0.7%. Same read-out and setting: as for `Nc1c(O)cccc1C(=O)O` [3-Hydroxyanthranilic acid], the figure is 1.1%; as for `COc1cc(/C=C/C(=O)OC[C@H]2O[C@H](O[C@]3(CO)O[C@H](CO)[C@@H](O)[C@@H]3O)[C@H](O)[C@@H](O)[C@@H]2O)cc(OC)c1O` [Sibiricose A1], 2.3%.

Take `N#CCc1c[nH]c2ccccc12` [3-Indoleacetonitrile]: the “OC43 Inhibition rate” value worked out at 0.8%. Consider `O=c1cc(-c2ccc(O)cc2)oc2c([C@@H]3O[C@H](CO)[C@@H](O)[C@H](O)[C@H]3O)c(O)c([C@@H]3O[C@H](CO)[C@@H](O)[C@H](O)[C@H]3O)c(O)c12` [Vicenin 2], for which the “OC43 Inhibition rate” value is listed as -0.6%. The same measure, in the same setting: under `CC1=CC=C(C(C)C)CC1` [α-Terpinene] stands -3.5%; under `OCC1=C[C@@H](O)[C@]2(O[C@@H]3O[C@H](CO)[C@@H](O)[C@H](O)[C@H]3O[C@@H]3O[C@H](CO)[C@@H](O)[C@H](O)[C@H]3O)C=CO[C@@H](O[C@@H]3O[C@H](CO)[C@@H](O)[C@H](O)[C@H]3O)[C@H]12` [Rehmannioside D], 15.4%. In the case of `COC(=O)c1c(C)cc(OC(=O)c2c(C)cc(O)c(C=O)c2O)c(C)c1O` [Atranorin], the “OC43 Inhibition rate” value worked out at 11.8%.

Take `O=C(O)CC(CC(=O)O)C(=O)O` [Tricarballylic acid]: the “OC43 Inhibition rate” value is listed as 2.5%. Take `C=C[C@H]1CN2CC[C@H]1C[C@H]2[C@H](O)c1ccnc2ccccc12` [Cinchonidine]: the “OC43 Inhibition rate” value is on record as 1.2%.

In the case of `O=C(O)C1=CO[C@@H](O[C@@H]2O[C@H](CO)[C@@H](O)[C@H](O)[C@H]2O)[C@@H]2C(CO)=CC[C@H]12` [Geniposidic acid], the “OC43 Inhibition rate” value was -0.1%. `Nc1ccc(C(=O)O)cc1` [4-Aminobenzoic acid]: the “OC43 Inhibition rate” value is -0.3%. As for `CC(C)c1ccc2c(c1)CC[C@H]1[C@](C)(CN)CCC[C@]21C` [Leelamine (hydrochloride)], the “OC43 Inhibition rate” value is on record as -3%. For the compound `CC(C)C[C@H](NC(=O)CN)C(=O)O` [Glycyl-L-leucine], the “OC43 Inhibition rate” value is -0.7%. In the case of `COc1c(C)c2c(c(O)c1C/C=C(\C)CCC(=O)O)C(=O)OC2` [Mycophenolic acid], the “OC43 Inhibition rate” value was determined as 36.2%. Same read-out and setting: as for `COC(=O)[C@H]1O[C@@H](Oc2cc3oc(-c4ccccc4)cc(=O)c3c(O)c2O)[C@H](O)[C@@H](O)[C@@H]1O` [Baicalin methyl ester], the figure is -0.4%; as for `O[C@H](c1ccccc1)[C@H](O)c1ccccc1` [(R,R)-(+)-Hydrobenzoin], 0%. In the case of `Cc1occc1SSc1ccoc1C` [Bis(2-methyl-3-furyl)disulfide], the “OC43 Inhibition rate” value is reported as -1%. For `C[C@H](CC[C@@]1(O)O[C@H]2C[C@H]3[C@@H]4CC=C5C[C@@H](O[C@@H]6O[C@H](CO)[C@@H](O[C@@H]7O[C@@H](C)[C@H](O)[C@@H](O)[C@H]7O)[C@H](O)[C@H]6O[C@@H]6O[C@@H](C)[C@H](O)[C@@H](O)[C@H]6O)CC[C@]5(C)[C@H]4CC[C@]3(C)[C@H]2[C@@H]1C)CO[C@@H]1O[C@H](CO)[C@@H](O)[C@H](O)[C@H]1O` [Protodioscin], the “OC43 Inhibition rate” value is -6%. `CCCCOC(=O)c1ccccc1C(=O)O` [Monobutyl phthalate]: the “OC43 Inhibition rate” value is 0.6%.

As for `CC1=CC(=O)CC1` [3-Methyl-2-cyclopenten-1-one], the “OC43 Inhibition rate” value was 1.5%.

For `CC1(C)CC[C@]2(C(=O)O)CC[C@]3(C)C(=CC[C@@H]4[C@@]5(C)CC[C@@H](O)C(C)(C)[C@@H]5CC[C@]43C)[C@@H]2C1` [3-Epioleanolic acid], the “OC43 Inhibition rate” value is -0.6%. The same measure, in the same setting: as for `CCCCCCCCCCCCCCCCCCCCCC(=O)O[C@H]1CC[C@@]2(C)C(=CC[C@H]3[C@@H]4CC[C@H]([C@H](C)CCCC(C)C)[C@@]4(C)CC[C@@H]32)C1` [Cholesteryl behenate], the figure is 0%. Turning to `CC1(C)CC[C@]2(C(=O)O[C@@H]3O[C@H](CO)[C@@H](O)[C@H](O)[C@H]3O)CC[C@]3(C)C(=CC[C@@H]4[C@@]5(C)CC[C@H](O[C@@H]6O[C@H](CO)[C@@H](O)[C@H](O[C@@H]7O[C@H](CO)[C@@H](O)[C@H](O)[C@H]7O)[C@H]6O[C@@H]6O[C@H](CO)[C@@H](O)[C@H](O)[C@H]6O)[C@@](C)(CO)[C@@H]5CC[C@]43C)[C@@H]2C1` [Araloside VII], the “OC43 Inhibition rate” value is 3.9%. `Cc1ncc(CO)c(CN)c1O` [Pyridoxylamine (dihydrochloride)]: the “OC43 Inhibition rate” value (OC43 Inhibition rate, 24 h) is -0.9%.

As to `C=C(C)[C@H](C)c1cc(/C=C/C(=O)c2ccc(O)cc2)c(OC)cc1O` [Licochalcone E], the “OC43 Inhibition rate” value was 55.6%.

Consider `O=C(CO)[C@@H](O)[C@H](O)[C@H](O)COP(=O)(O)O` [D-Fructose-6-phosphate (disodium) salt], for which the “OC43 Inhibition rate” value is on record as -9.1%. `CCCC(=O)c1c(O)c(CC2=C(O)C(C)(C)C(=O)C(C(C)=O)=C2O)c(O)c(Cc2c(O)c(CC3=C(O)C(C)(C)C(=O)C(C(C)=O)=C3O)c(O)c(C(=O)CCC)c2O)c1O` [Dryocrassin ABBA]: the “OC43 Inhibition rate” value is -1.8%.

For the compound `COc1cc(O)c2c(=O)cc(-c3ccc(O)c(OC)c3)oc2c1` [Velutin], the “OC43 Inhibition rate” value was found to be 34.1%. Consider `O=c1c(-c2ccc(O)cc2)coc2cc(O)ccc12` [Daidzein], for which the “OC43 Inhibition rate” value is recorded as 0.2%.

Consider `C[C@@H]1O[C@@H](Oc2cc(O)c3c(=O)c(O)c(-c4ccc(O)cc4)oc3c2)[C@H](O)[C@H](O)[C@H]1O` [Kaempferol-7-O-rhamnoside], for which the “OC43 Inhibition rate” value turned out to be 6.9%. As for `CC1=C(/C=C/C(C)=C/C=C/C(C)=C/C=C/C=C(C)/C=C/C=C(\C)C=O)C(C)(C)CCC1` [β-Apo-8'-carotenal], the “OC43 Inhibition rate” value is on record as -0.2%. The same measure, in the same setting: as for `CC1(C)CC[C@]2(C(=O)O)CC[C@]3(C)C(=CC[C@@H]4[C@@]5(C)CC[C@H](O)C(C)(C)[C@@H]5CC[C@]43C)[C@@H]2C1` [Oleanolic Acid], the figure is -1.6%. As for `C/C(=C\CC[C@@H](C)[C@H]1CC[C@@]2(C)C3=C(CC[C@]12C)[C@@]1(C)CCC(=O)C(C)(C)[C@@H]1CC3=O)C(=O)O` [Ganoderic acid DM], the “OC43 Inhibition rate” value was 0.9%. As for `C[n+]1cccc(C(N)=O)c1` [TRIA-662], the “OC43 Inhibition rate” value came out at 1.7%. As for `O=C(O)[C@H](O)[C@@H](O)[C@H](O[C@@H]1O[C@H](CO)[C@H](O)[C@H](O)[C@H]1O)[C@H](O)CO` [Lactobionic acid], the “OC43 Inhibition rate” value is listed as 0.1%. Turning to `CCCCCCCC/C=C\CCCCCCCC(=O)NCCO` [Oleoylethanolamide], the “OC43 Inhibition rate” value is 9.5%.

Turning to `C=C[C@H](O)CC(=NOS(=O)(=O)O)S[C@@H]1O[C@H](CO)[C@@H](O)[C@H](O)[C@H]1O` [Progoitrin], the “OC43 Inhibition rate” value is on record as 0.7%. In the case of `CC(C)C[C@H](O)C(=O)O` [(S)-Leucic acid], the “OC43 Inhibition rate” value was determined as 1.1%.

With `COc1ccc(/C=C/C(=O)c2ccc(OC)cc2)cc1` [4,4'-Dimethoxychalcone], the “OC43 Inhibition rate” value was 10.7%. Turning to `CC(C)=CC/C=C(\C)[C@H]1CC[C@]2(C)[C@@H]1[C@H](O)C[C@@H]1[C@@]3(C)CC[C@H](O[C@@H]4O[C@H](CO)[C@@H](O)[C@H](O)[C@H]4O[C@@H]4O[C@H](CO)[C@@H](O)[C@H](O)[C@H]4O)C(C)(C)[C@@H]3CC[C@]12C` [Ginsenoside Rg5], the “OC43 Inhibition rate” value was found to be 7.5%.
